# Values of other authors as cited in patent US20060257852A1 (priority 2003, published 2006).
# At least one structure is not confirmed: it was looked up by name or label, or the drawing left a doubt.
# Test system: TNF-α
# Conditions: cited from earlier work
compound,measurement,value
"C=CCn1c(=O)n([C@@H]2O[C@H](CO)[C@@H](O)[C@H]2O)c2nc(N)[nH]c(=O)c21 [Loxoribine, 7-Allyl-8-Oxoguanosine]",concentration causing useful production of TNF-α,300 µM
